Source: patent US20160274132A1
No constants are given. Whether binding was seen depends on the method and setting. Some entries that bind do so weakly or less than the wild type.

Columns and labels:
[1] = biological target: T1, human calcitonin receptor (hCTR) (human) (UniProt P30988); assay: FACS scatter plots of Jurkat cells
T1 sequence: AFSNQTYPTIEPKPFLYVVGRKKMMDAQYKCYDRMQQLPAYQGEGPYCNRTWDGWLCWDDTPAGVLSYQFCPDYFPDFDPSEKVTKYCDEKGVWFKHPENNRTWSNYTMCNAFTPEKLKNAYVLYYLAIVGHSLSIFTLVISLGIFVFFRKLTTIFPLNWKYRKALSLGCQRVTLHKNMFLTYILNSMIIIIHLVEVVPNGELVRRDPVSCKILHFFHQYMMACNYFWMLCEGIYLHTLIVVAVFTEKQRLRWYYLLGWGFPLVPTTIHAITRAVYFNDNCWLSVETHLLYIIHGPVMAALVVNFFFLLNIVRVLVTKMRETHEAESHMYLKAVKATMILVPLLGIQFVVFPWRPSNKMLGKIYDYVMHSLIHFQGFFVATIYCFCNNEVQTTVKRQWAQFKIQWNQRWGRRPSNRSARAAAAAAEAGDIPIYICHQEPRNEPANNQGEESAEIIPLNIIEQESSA

[2] = biological target: T1, human calcitonin receptor (hCTR) (human); assay: FACS of staurosporine-treated Jurkat cells, live staining with 1 ug/mL
[3] = biological target: T1, human calcitonin receptor (hCTR) (human); assay: FACS scatter plots of Jurkat cells with Sytox Red
[4] = biological target: T1, human calcitonin receptor (hCTR) (human); assay: FACS on cell lines expressing hCTR
[5] = biological target: T1, human calcitonin receptor (hCTR) (human); assay: FACS histograms of Jurkat cells induced to undergo programmed cell death

Measured: binding

B1: MAb 46/08-2C4 conjugated with AlexaFluor 568 (MAb2C4:AF568) (antibody, V domains shown)
VH: QVHLQQSGAELARPGASVRLSCEASGYTFTKYWMQWIKQRPGQGLEWIGAIYPGDGDSRYTPKFKGKATLTADKSSGTAYIQLSSLASEDSAVYYCARGDGTYWGQGTLVTVSA
VL: DIQMTQSPASLSASVGETVTITCRASENIYSYLAWYQQKQGKSPQLLVYKAKTLEEGVPSRFSGSGSGTQFSLKINSLQPEDFGSYYCQHHYGTPRTFGGGTKLEIK
modifications: AlexaFluor 568 succinimidyl ester conjugate; labelled residues not stated
binds: all assays above
